Measured values: patent US20260152569A1, “ANTI-GPC1 MONOCLONAL ANTIBODY, THERAPEUTIC AND DIAGNOSTIC USES THEREOF” (CENTRO DI RIFERIMENTO ONCOLOGICO DI AVIANO, priority 2022, published 2026)
No constants are given. Whether binding was seen depends on the method and setting. Some binding calls cover weakened binding; strength is not graded here.

Target: T1, GPC1 (antigen in ELISA) (UniProt P35052)
T1 sequence (looked up): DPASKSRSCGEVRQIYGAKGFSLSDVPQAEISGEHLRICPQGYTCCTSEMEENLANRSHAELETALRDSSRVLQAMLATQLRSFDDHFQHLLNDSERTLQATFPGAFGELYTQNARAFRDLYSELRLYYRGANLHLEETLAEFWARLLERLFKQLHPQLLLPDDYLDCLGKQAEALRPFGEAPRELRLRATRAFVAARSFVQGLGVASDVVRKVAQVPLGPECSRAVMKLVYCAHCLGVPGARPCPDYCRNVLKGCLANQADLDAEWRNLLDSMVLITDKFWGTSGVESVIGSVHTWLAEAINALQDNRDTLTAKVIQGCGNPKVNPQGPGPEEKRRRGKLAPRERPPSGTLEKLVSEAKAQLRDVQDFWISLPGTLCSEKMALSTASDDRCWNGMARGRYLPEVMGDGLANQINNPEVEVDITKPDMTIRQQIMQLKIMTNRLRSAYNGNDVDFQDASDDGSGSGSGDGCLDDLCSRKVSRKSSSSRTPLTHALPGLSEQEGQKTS
Test: ELISA

- binding: binds
B1: anti-GPC1 C (antibody, V domains shown)
VH: QVQLQQSDAELVKPGASVKISCKASGYTFTDHAIHWVKQKPEQGLEWIGYISPGNGDIKYNEKFKGKATLTADKSSSTAYMQLNSLTSEDSAVYFCKRYAYWGQGTLVTVSA
VL: DVLMTQTPLSLPVSLGDQASISCRSSQSIVHSNGNTYLEWYLQKPGQSPKLLIYKVSNRFSGVPDRFSGSGSGTDFTLKISRVEAEDLGVYYCFQGSHVPWTFGGGTKLEIKP
